In PMC5127643 one finds binding data, which are given here for one substance.

By UniProt entry, the sequences of proteins in these tests, tags left out.
UniProt P10961: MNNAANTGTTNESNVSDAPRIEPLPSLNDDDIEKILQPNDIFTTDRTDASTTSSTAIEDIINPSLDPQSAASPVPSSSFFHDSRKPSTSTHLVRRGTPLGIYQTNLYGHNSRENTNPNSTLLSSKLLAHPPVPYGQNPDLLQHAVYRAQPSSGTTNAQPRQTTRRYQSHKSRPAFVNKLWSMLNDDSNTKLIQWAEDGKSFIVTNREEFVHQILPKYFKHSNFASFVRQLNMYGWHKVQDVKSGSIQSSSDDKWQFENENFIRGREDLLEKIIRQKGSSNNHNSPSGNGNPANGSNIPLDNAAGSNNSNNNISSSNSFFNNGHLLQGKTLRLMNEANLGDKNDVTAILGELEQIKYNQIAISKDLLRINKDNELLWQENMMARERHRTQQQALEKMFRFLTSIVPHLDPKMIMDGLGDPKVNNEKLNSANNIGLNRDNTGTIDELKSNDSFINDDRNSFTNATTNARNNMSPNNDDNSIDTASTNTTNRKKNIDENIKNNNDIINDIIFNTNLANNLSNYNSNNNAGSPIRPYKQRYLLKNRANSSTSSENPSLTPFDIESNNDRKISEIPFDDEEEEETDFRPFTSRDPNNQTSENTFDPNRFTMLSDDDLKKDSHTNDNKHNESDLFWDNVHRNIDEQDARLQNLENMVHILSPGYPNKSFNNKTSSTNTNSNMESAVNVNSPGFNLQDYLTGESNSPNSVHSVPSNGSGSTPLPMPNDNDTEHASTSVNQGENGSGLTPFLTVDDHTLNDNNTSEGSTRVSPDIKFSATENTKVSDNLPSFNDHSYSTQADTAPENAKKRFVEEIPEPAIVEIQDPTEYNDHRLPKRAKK
UniProt P10591: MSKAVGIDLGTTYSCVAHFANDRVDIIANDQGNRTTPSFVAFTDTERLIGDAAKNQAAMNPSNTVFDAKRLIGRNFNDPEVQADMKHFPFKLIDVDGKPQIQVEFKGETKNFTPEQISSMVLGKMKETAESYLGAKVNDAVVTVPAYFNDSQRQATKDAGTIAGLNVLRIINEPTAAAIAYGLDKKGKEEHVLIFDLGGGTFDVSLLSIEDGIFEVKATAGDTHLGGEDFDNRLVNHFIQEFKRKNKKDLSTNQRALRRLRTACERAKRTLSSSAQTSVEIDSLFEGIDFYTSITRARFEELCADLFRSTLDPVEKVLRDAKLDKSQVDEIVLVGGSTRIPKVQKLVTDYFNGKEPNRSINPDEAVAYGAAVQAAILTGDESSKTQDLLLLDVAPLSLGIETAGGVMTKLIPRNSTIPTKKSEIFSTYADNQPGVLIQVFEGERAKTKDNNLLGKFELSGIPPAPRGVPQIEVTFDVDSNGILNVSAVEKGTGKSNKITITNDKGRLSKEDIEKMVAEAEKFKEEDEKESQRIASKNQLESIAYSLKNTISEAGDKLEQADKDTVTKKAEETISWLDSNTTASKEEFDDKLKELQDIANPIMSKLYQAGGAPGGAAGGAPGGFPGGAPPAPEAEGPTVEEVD

The assay deals with Hsf1-3xFLAG-V5 (S. cerevisiae) (UniProt P10961). Briefly: co-IP; IP of Hsf1-3xFLAG-V5 from yeast lysate, Western blot with antiserum recognizing Ssa1/2; heat shock time course 25°C to 39°C; wild type and ydj1∆ cells. Background: In western blotting, separated proteins are transferred to a membrane and probed.

No constants are given. Whether binding was seen depends on the method and setting. In cells and extracts the contact can be indirect. Some entries that bind do so weakly or less than the wild type.

In the case of Ssa1 (from UniProt P10591 1-642), the binding entry was “binds”.
